The target in test [1] is T1, endogenous NONO (human (endogenous in SK-Mel-28 and A375)) (UniProt Q15233).
T1 sequence: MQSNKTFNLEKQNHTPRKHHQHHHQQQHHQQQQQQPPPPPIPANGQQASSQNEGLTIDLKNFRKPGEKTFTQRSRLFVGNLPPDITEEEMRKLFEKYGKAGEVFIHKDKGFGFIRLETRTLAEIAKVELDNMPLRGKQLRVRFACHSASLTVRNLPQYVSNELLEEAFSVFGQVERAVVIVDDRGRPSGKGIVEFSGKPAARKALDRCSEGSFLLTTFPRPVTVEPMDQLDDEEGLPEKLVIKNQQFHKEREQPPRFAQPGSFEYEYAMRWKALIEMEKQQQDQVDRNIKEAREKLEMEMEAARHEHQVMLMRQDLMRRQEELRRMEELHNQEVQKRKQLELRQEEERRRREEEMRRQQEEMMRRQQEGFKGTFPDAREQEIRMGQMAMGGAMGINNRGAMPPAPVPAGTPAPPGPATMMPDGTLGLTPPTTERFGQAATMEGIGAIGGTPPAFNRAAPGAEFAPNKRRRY
Briefly: co-IP; endogenous proteins in SK-Mel-28 and A375 lysates; precipitated with anti-USP11 or anti-NONO antibody or control IgG; Western blot. (In general: In western blotting, separated proteins are transferred to a membrane and probed.)

Amino acid sequences for entries named in this document (tags omitted).
UniProt P51784: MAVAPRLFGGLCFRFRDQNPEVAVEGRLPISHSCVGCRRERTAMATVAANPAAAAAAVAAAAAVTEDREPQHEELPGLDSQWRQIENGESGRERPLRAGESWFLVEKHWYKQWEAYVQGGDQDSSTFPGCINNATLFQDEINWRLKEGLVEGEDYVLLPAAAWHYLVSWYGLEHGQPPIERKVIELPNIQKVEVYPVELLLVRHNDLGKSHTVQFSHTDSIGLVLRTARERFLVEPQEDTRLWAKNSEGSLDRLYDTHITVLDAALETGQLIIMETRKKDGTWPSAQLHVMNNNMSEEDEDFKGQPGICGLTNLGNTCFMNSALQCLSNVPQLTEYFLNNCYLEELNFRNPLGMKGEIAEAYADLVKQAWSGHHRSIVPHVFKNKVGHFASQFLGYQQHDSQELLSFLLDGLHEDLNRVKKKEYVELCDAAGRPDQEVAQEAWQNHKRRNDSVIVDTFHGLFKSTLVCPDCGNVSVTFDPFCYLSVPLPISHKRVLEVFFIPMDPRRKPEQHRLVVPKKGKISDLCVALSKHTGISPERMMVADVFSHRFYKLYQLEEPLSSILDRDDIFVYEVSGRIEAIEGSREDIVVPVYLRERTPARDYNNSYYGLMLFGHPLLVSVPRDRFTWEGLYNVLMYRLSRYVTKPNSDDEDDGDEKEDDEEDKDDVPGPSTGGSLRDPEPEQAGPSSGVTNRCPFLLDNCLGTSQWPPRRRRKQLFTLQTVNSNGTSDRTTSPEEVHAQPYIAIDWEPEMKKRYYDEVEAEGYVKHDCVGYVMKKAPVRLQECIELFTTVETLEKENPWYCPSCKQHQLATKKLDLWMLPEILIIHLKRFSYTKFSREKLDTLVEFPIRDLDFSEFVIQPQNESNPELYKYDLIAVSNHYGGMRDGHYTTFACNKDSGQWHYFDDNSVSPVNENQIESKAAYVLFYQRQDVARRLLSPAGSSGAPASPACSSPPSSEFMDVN

For test [2], the target named is T2, 3 × Myc‐tagged NONO (entire length) (UniProt Q15233).
T2 sequence: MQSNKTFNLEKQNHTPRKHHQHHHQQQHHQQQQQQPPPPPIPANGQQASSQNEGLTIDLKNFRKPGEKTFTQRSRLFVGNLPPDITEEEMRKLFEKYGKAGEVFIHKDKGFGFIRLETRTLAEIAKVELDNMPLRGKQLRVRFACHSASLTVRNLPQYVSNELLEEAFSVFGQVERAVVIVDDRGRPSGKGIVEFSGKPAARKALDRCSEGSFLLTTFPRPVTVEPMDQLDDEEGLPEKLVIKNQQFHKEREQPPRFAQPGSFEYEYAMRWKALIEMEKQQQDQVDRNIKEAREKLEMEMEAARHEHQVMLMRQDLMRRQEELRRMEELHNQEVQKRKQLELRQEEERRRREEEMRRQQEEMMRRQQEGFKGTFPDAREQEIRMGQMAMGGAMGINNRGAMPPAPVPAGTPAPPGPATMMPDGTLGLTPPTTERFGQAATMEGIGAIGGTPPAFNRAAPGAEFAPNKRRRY
Kind of test: co-IP; Flag-USP11 and Myc-NONO transfected into HEK293; lysates precipitated with antibodies against Flag or Myc or isotype-matched normal IgG, overnight at 4°C, Protein G Magnetic Beads; Western blot.

For test [3], the target named is recombinant GST‐USP11 (full length) (UniProt P51784). Kind of test: pull-down; GST or GST-USP11 purified from E.coli incubated with equal Myc-NONO expressed in HEK293, loaded onto GST-tag Purification Resin; Myc-NONO in the elution analysed; only the target purified.
In test [4] the target is 3 × Flag‐tagged USP11 (wild‐type USP11, entire length) (UniProt P51784). Kind of test: co-IP; Flag-USP11 and Myc-NONO transfected into HEK293; lysates precipitated with antibodies against Flag or Myc or isotype-matched normal IgG, overnight at 4°C, Protein G Magnetic Beads; Western blot.
Test [5] has as its target endogenous USP11 (human (endogenous in SK-Mel-28 and A375)) (UniProt P51784). Briefly: co-IP; endogenous proteins in SK-Mel-28 and A375 lysates; precipitated with anti-USP11 or anti-NONO antibody or control IgG; Western blot.

Results are given in words; binding and its absence hold for the method and conditions named. Binding seen in cells or lysates may run through a third protein. Some results given as binding are weak or reduced against the parent protein; the word gives no strength. For some assays here: Tags and fused reporters may be left off the sequences shown.

Consider “endogenous USP11 (from UniProt P51784 1-963) (enzyme)”, for which the binding result in test [1] was “binds”.

With “3 × Flag‐tagged USP11 (wild‐type USP11, entire length) (from UniProt P51784 1-963) (enzyme)”, the binding result in test [2] is recorded as “binds”.

B1: 3 × Myc‐tagged NONO (entire length) (protein, UniProt Q15233 1-471)
chain: MQSNKTFNLEKQNHTPRKHHQHHHQQQHHQQQQQQPPPPPIPANGQQASSQNEGLTIDLKNFRKPGEKTFTQRSRLFVGNLPPDITEEEMRKLFEKYGKAGEVFIHKDKGFGFIRLETRTLAEIAKVELDNMPLRGKQLRVRFACHSASLTVRNLPQYVSNELLEEAFSVFGQVERAVVIVDDRGRPSGKGIVEFSGKPAARKALDRCSEGSFLLTTFPRPVTVEPMDQLDDEEGLPEKLVIKNQQFHKEREQPPRFAQPGSFEYEYAMRWKALIEMEKQQQDQVDRNIKEAREKLEMEMEAARHEHQVMLMRQDLMRRQEELRRMEELHNQEVQKRKQLELRQEEERRRREEEMRRQQEEMMRRQQEGFKGTFPDAREQEIRMGQMAMGGAMGINNRGAMPPAPVPAGTPAPPGPATMMPDGTLGLTPPTTERFGQAATMEGIGAIGGTPPAFNRAAPGAEFAPNKRRRY
Take B1: the binding result in test [3] and in test [4] was “binds” each time.

B2: endogenous NONO (protein, UniProt Q15233 1-471)
chain: MQSNKTFNLEKQNHTPRKHHQHHHQQQHHQQQQQQPPPPPIPANGQQASSQNEGLTIDLKNFRKPGEKTFTQRSRLFVGNLPPDITEEEMRKLFEKYGKAGEVFIHKDKGFGFIRLETRTLAEIAKVELDNMPLRGKQLRVRFACHSASLTVRNLPQYVSNELLEEAFSVFGQVERAVVIVDDRGRPSGKGIVEFSGKPAARKALDRCSEGSFLLTTFPRPVTVEPMDQLDDEEGLPEKLVIKNQQFHKEREQPPRFAQPGSFEYEYAMRWKALIEMEKQQQDQVDRNIKEAREKLEMEMEAARHEHQVMLMRQDLMRRQEELRRMEELHNQEVQKRKQLELRQEEERRRREEEMRRQQEEMMRRQQEGFKGTFPDAREQEIRMGQMAMGGAMGINNRGAMPPAPVPAGTPAPPGPATMMPDGTLGLTPPTTERFGQAATMEGIGAIGGTPPAFNRAAPGAEFAPNKRRRY
B2: the binding result in test [5] is “binds”.
